Structures are written as SMILES. Among all 230,000 compounds or so, about 310 (0.13%) were called active. Roughly 2% stayed inconclusive and do not appear here. The call rests on the fitted dose curve; in most records, active means well fitted activation curve with a large enough effect; inconclusive means small, poorly fitted or top-dose-only effect; inactive means no such curve, though single readings can be large or run the other way. Only a part is listed here, and it is no random draw. Where no call is shown, the source filed none. A structure can be active in one record and inactive in another.
Potency means the concentration at half of the fitted maximal effect.

The assay is described as follows: qHTS Multiplex Assay to Identify Dual Action Probes in a Cell Model of Huntington: Cytoprotection (ATP). Further: nearly all actives have a fitted effect of over 45% in size.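 On cytoprotection (ATP increase): toxic huntingtin expression switched on by the ecdysone agonist tebufenozide; % of control where 0% means no effect.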 The conditions noted are these: PC12 HTT-Q103 induced, ATP luminescence, 40 h; cytoprotection (ATP increase): at 56.4 µM (top of the series) unless noted. The gist of the method:
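Rat PC12, Q103 Htt exon1-GFP fusion, ecdysone promoter; tebufenozide inducer 100 nM final; compound titration; qHTS, 1500 cells/well; ATPlite luminescent read.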
In general terms: In qHTS, concentration-response curves come from the screen itself.
In the case of `CCc1cccc(CC)c1NC(=O)c1ccccc1CCc1ccccc1`, the cytoprotection (ATP increase) is 331% [at 10 µM]. In the case of `COC(=O)[C@H](COC(C)(C)C)NC(=O)O[C@@H]1C(=O)c2ccc(OC)cc2O[C@H]1c1ccc2c(c1)OCO2`, the cytoprotection (ATP increase) is -36.6%. The same measure, in the same setting: then `CC(C)OC(=O)[C@@H]1CC[C@H](C)[C@@H](CCCCO)O1`, with 51.8%; and `COC(=O)C1(C(=O)OC)C[C@H]2CON=C2[C@H]1c1ccccc1`, with 17.2%; and `C=CCOc1cccc(C2C(C(=O)c3ccc(C)o3)=C(O)C(=O)N2c2nccs2)c1` (stereo not drawn), with 158%. For the compound `N[C@@H](Cc1cc(CP(=O)(O)O)cc(-c2ccccc2Cl)c1)C(=O)O`, the Potency is active: 31.6 µM. For the compound `COc1cc(-c2nc(S(=O)(=O)c3ccc(C)cc3)c(N(C)C)o2)cc(OC)c1OC`, the Potency is active: 0.891 µM.

Turning to `CCOC(=O)C1(C(C)C)Oc2ccccc2C(c2ccc(OC)cc2)=C1C(=O)OC` (stereo not drawn), the cytoprotection (ATP increase) is -35.6%.

`COc1nccnc1NS(=O)(=O)c1ccc(N=Cc2c(C)[nH]n(-c3ccc(Cl)cc3)c2=O)cc1`: the cytoprotection (ATP increase) worked out at 185% [at 10 µM].

Turning to `Cc1cc(C)c2nc3nc(C)cc(C)c3c(N)c2c1`, the cytoprotection (ATP increase) was 194% [at 10 µM]. On the same count and under the same terms, then `CNCCCC12CCC(c3ccccc31)c1ccccc12`, with -49.5%. `Oc1cc2c(cc1O)CN(C(=S)NCCc1ccc(Cl)cc1)CCC2`: the cytoprotection (ATP increase) turned out to be 104%. Take `CCCCCCC(=O)OC1CC(C)(C)NC(C)(C)C1`: the cytoprotection (ATP increase) is -8.03%.

Turning to `S=C(Nc1ccc(Br)cc1)NC1CCCCC1`, the cytoprotection (ATP increase) stood at 224% [at 0.074 µM]. Regarding `CCOC(=O)c1sc2nc(N3CCOCC3)c3c(c2c1N)CCN(C)C3`, the Potency is active: 0.631 µM. As to `COc1ccc(NC(=O)Nc2nc(C)cc(C)n2)c(OC)c1`, the cytoprotection (ATP increase) was 379% [at 10 µM]. Regarding `CC1(C)Cc2c(c(=S)nc(-c3ccccc3)n2CCO)CO1`, the Potency was active: 20 µM.

As for `Oc1ccc(C(c2nnnn2C2CCCCC2)N2CCOCC2)cc1` (stereo not drawn), the cytoprotection (ATP increase) was 313% [at 10 µM]. Turning to `O=C(CSc1c2c(nc3cc(Cl)ccc13)CCCC2)NCc1ccco1`, the Potency is active: 12.6 µM.

Turning to `COc1ccc2[nH]c(-c3ccccc3)c(CCNC(C)=O)c2c1`, the cytoprotection (ATP increase) is -36.5%. Still for that read-out and setting: then `CCCCC/C=C\C/C=C\CCCCCCCCCC(=O)O`, with -4.22%; and `CC(CCC(=O)O)C1CCC2C3CC[C@H]4CC(O)CC[C@@]4(C)C3CC(O)[C@]12C` (stereo partly drawn), with 20.6%.

With `O=C(Nc1ccccc1)c1ccc(Br)o1`, the cytoprotection (ATP increase) was -58.2% [at 96.6 µM]. In the case of `CC1CCN(C(=O)/C=C/c2ccc(C(C)(C)C)cc2)CC1`, the cytoprotection (ATP increase) is 156% [at 0.074 µM]. Same read-out and setting: then `CCN1C(=O)C(CC(=O)Nc2ccc(OC)cc2)N(Cc2cccnc2)C1=S` (stereo not drawn), with 108%. As for `Cc1nn(C)c(C)c1/C=C/C(=O)O`, the Potency is active: 11.2 µM. Take `O=C(c1cc(-c2cccs2)on1)N1CCCc2ccccc21`: the cytoprotection (ATP increase) is 385% [at 10 µM]. Turning to `O=C(NC1C/C(=N/O)c2cc3c(cc21)OCO3)C(F)(F)F` (stereo not drawn), the Potency was active: 3.98 µM. Consider `Cc1nn(C)c2nc(NNC(=O)Nc3cc(Cl)nc(Cl)c3)cc(C(C)C)c12`, for which the cytoprotection (ATP increase) is -28.6%. Same read-out and setting: under `O=c1[nH]cc(F)c(=O)[nH]1` stands -133%.

Turning to `CCCCC[C@H](O)/C=C/[C@@H]1[C@@H](C/C=C\CCCC(=O)O)[C@H]2CO[C@@H]1C2`, the cytoprotection (ATP increase) was -9.61%. As for `Cc1cn(C2CC(N=[N+]=[N-])C(CO)O2)c(=O)[nH]c1=O` (stereo not drawn), the cytoprotection (ATP increase) was -39.3%.

On to `OC[C@@H]1[C@@H](c2ccc(Cl)cc2)C(c2cccc(Cl)c2)=NN1c1ccccc1`, for which the cytoprotection (ATP increase) is -57.1%. The same measure, in the same setting: under `O=C(N/N=C/c1ccco1)C1CC1(c1ccccc1)c1ccccc1` (stereo not drawn) stands 298% [at 10 µM]; under `Cc1ccc(S(=O)(=O)N2CCC(=O)N(CCOC(=O)Nc3ccc(C)c(C)c3)CC2)cc1`, 1.18%. Turning to `Cc1cc(-c2ccccc2)nc(N/N=C/c2ccc([N+](=O)[O-])cc2)n1`, the cytoprotection (ATP increase) is 209% [at 10 µM]. On the same count and under the same terms, under `CN(C)Cc1cc(C(C)(C)c2cc(CN(C)C)c(O)c(CN(C)C)c2)cc(CN(C)C)c1O` stands 374% [at 10 µM]; under `CC[C@@H]1C(c2ccccc2)=NN(c2ccccc2)[C@H]1C(=O)N1CCOC1=O`, -65.2%; under `CN1CCc2cccc3c2C1Cc1ccc(O)c(O)c1-3` (stereo not drawn), 25.3%.

Take `N#CCCn1cc(C(=O)Nc2ccc(C(=O)O)cc2)c(-c2cccs2)n1`: the cytoprotection (ATP increase) turned out to be 299% [at 10 µM]. Still for that read-out and setting: then `CN(C)S(=O)(=O)c1ccc(/C(O)=C2/C(=O)C(=O)N(Cc3cccnc3)C2c2cccs2)cc1` (stereo not drawn), with 225% [at 10 µM].

As for `N#Cc1cc2c(N)c(C(=O)Nc3ccccc3)sc2nc1N`, the cytoprotection (ATP increase) turned out to be 280% [at 10 µM]. Same read-out and setting: then `CCOC(=O)C1C(C(=O)OC)=C(c2ccc(OC)cc2)c2ccccc2N1S(=O)(=O)C(F)(F)F` (stereo not drawn), with -12.1%. Still for that read-out and setting: then `Cn1c(SCC(=O)N/N=C/C=C/c2ccco2)nc2ccccc21`, with 147% [at 10 µM]. Regarding `Cn1cc(C2=C(c3ccc(Cl)cc3Cl)C(=O)NC2=O)c2ccccc21`, the Potency is active: 31.6 µM. On the same count and under the same terms, under `Clc1cccc(NCc2nnc3n2CCCCC3)c1` stands active: 3.98 µM. As to `C=CCc1cccc(C=Nc2ccc(Br)cc2)c1O`, the cytoprotection (ATP increase) amounted to 40.2%.

On to `Oc1ccc(O)cc1`, for which the Potency is active: 31.6 µM.

For `OC[C@@H]1[C@@H](c2ccc(Cl)cc2)C(c2ccc(F)cc2)=NN1c1ccccc1`, the cytoprotection (ATP increase) is -194%. As to `Cc1nnc2n1N=CC=C(c1ccccc1)S2`, the Potency is active: 15.8 µM.

In the case of `O=C1C[C@H]2CCCCC(=O)N3CC[C@@H](C1)[C@@H]23`, the cytoprotection (ATP increase) was -1.58% [at 96.6 µM]. Regarding `COc1ccc(N(C(C)C(=O)N/N=C/c2cc(Br)c(C)o2)S(C)(=O)=O)cc1` (stereo not drawn), the Potency is active: 0.891 µM. As to `CCC(=O)OCC(=O)[C@@]1(OC(=O)CC)[C@@H](C)C[C@@H]2[C@H]3CCC4=CC(=O)C=C[C@]4(C)[C@@]3(F)[C@@H](O)C[C@@]21C`, the cytoprotection (ATP increase) is -44.2%. On the same count and under the same terms, under `Cc1cc(=O)c2cc(Cl)ccc2[nH]1` stands 37% [at 96.6 µM]; under `O=C1c2c(O)cccc2Cc2cccc(O)c21`, -30.8%; under `COC(=O)C1=C(C)NC(C)=C(C(=O)OCCNCc2ccccc2)C1c1cccc([N+](=O)[O-])c1` (stereo not drawn), -298%. Still for that read-out and setting: then `CCc1ccc(C2c3[nH]c4ccccc4c3CCN2C(=O)c2cc(C)nn2C)cc1` (stereo not drawn), with 426% [at 10 µM]; and `O=C1OCCN1C(=O)[C@H]1[C@H](c2ccc(F)cc2)C(c2ccc(F)cc2)=NN1c1ccc(Br)cc1`, with -148% [at 40.3 µM]; and `CCOC(=O)C1=NO[C@@]2(C=C(Br)C(=O)[C@H]3O[C@H]32)C1`, with 40.9%. As for `O=C1OCCN1C(=O)[C@H]1[C@H](c2ccccc2)C(c2cccc(Cl)c2)=NN1c1ccccc1`, the cytoprotection (ATP increase) was -45.5%.

For the compound `CCOC(=S)SCc1cn2ccccc2n1`, the cytoprotection (ATP increase) is 16.3%. For the compound `O=C(CSc1c2c(nc3ccc(Cl)cc13)CCCC2)N1CCN(C(=O)c2ccco2)CC1`, the Potency is active: 20 µM.

On to `COC(=O)[C@@H](N)CSC/C=C(\C)CC/C=C(\C)CCC=C(C)C`, for which the cytoprotection (ATP increase) was -26.7%. Still for that read-out and setting: then `CCCCC[C@H](O)/C=C/C=C\C/C=C\CCCCC(=O)O`, with -46.4%; and `CC(C)(C)Nc1oc(-c2ccccc2)nc1-c1ccc(C(F)(F)F)cc1`, with -37.5%; and `Cc1cc(NC(=O)CSc2nnc(Cn3c(=O)sc4ccccc43)n2-c2ccccc2C)no1`, with 273% [at 10 µM]. As for `O=[N+]([O-])c1ccc(Sc2n[nH]c(-c3ccc(Cl)cc3Cl)n2)nc1`, the Potency is active: 0.794 µM. Same read-out and setting: under `Cc1[nH]c2ccccc2c1/C=C/C(=O)c1ccncc1` stands active: 3.98 µM. With `O=C(O)CCCCCCCC(=O)O`, the cytoprotection (ATP increase) came to 34.7%. For the compound `CCN(CC)Cc1ccc(Nc2ccnc3cc(Cl)ccc23)cc1O`, the Potency is active: 14.1 µM. On to `CCCc1ncc(C[n+]2ccccc2C)c(N)n1`, for which the cytoprotection (ATP increase) is -62.3%.

As to `COc1c2c(cc3c1C(CC(=O)c1c(O)c(OC)c4occc4c1OC)[N+](C)(C)CC3)OCO2` (stereo not drawn), the cytoprotection (ATP increase) is -32.5%. Still for that read-out and setting: then `COc1cccc([C@@H]2Oc3ccc(Br)cc3C(=O)[C@H]2OC(=O)NS(=O)(=O)c2ccc(F)cc2)c1`, with -37.1%. For the compound `COC(=O)[C@@]1(Cc2ccc(OC)cc2)[C@H]2c3cc(C(=O)N4CCCC4)n(CCc4ccc(O)c(O)c4)c3C[C@H]2CN1C(=O)c1ccccc1`, the Potency is active: 11.2 µM.

For `CO[C@@H]1COC(=O)C/C=C\[C@@H](C)[C@H](OC)COC(=O)[C@H](COCc2ccccc2)NC(=O)C/C=C\[C@H]1C`, the Potency was active: 3.16 µM.

Turning to `CCCCCCOc1ccc(N2C(=O)CC(S/C(N)=N/N=C(\C)c3cccs3)C2=O)cc1` (stereo not drawn), the Potency is active: 0.794 µM. Turning to `COc1ccc(C(=O)C2CCN(C(=S)Nc3ccc(F)cc3)CC2)cc1`, the Potency was active: 2.51 µM. With `O=C(O)c1cccnc1SC1CC(=O)N(c2cccc(C(F)(F)F)c2)C1=O` (stereo not drawn), the cytoprotection (ATP increase) was 331% [at 10 µM]. Regarding `Cc1ccccc1-c1ccc2ncnc(-n3ccnc3)c2c1`, the Potency was active: 1 µM. On the same count and under the same terms, then `Clc1ccc2c(c1)C(N1CCNCC1)=Nc1ccccc1O2`, with active: 0.355 µM. Consider `CCCS(=O)(=O)N1CCC(C(=O)NCCCN(CC)c2cccc(C)c2)CC1`, for which the cytoprotection (ATP increase) is 313% [at 10 µM]. For the compound `Cc1noc(C)c1C(=O)N(CC(=O)NC1CCCC1)Cc1ccccc1F`, the cytoprotection (ATP increase) is 411% [at 10 µM]. On to `Cc1ccc(Cl)c(Nc2ccccc2C(=O)O)c1Cl`, for which the cytoprotection (ATP increase) came out at 11.7%. On the same count and under the same terms, then `C[C@]12O[C@H]1[C@@H](O)C(Br)=C(CO)[C@H]2O`, with -15.8%.

For the compound `O=C(CN1CCCCCC1)NCC1CCCO1` (stereo not drawn), the Potency is active: 2.24 µM. In the case of `COc1cc2c(c(OC)c1OC)C(c1ccc3c(c1)OCO3)CC(=O)O2` (stereo not drawn), the cytoprotection (ATP increase) was -54.8%. Still for that read-out and setting: then `CN1CCN(c2nc3cc(C(F)(F)F)ccc3n3cccc23)CC1`, with -30.1%.

Turning to `Cc1cc(/C=C/c2ccc3cc(N(C)C)ccc3[n+]2C)c(C)n1-c1ccccc1`, the cytoprotection (ATP increase) is -323%. For `O=C(CSc1c2c(nc3ccc(Cl)cc13)CCCC2)NCCCN1CCOCC1`, the cytoprotection (ATP increase) was -145%. For `Cn1cc([N+](=O)[O-])c(C(=O)Nc2ccn(Cc3c(F)c(F)cc(F)c3F)n2)n1`, the Potency is active: 10 µM. Regarding `CC(=O)Nc1ccc(C(=O)/C=C/c2ccc[nH]2)cc1`, the cytoprotection (ATP increase) came to 285% [at 10 µM]. As to `COc1ccc2c(c1)O[C@H](c1ccc3c(c1)OCO3)[C@@H](OC(=O)NC1CCCC1)C2=O`, the cytoprotection (ATP increase) is -37.4%.

For the compound `CN(C)c1ccc(-c2ccc3ncnc(-n4ccnc4)c3c2)cc1`, the Potency is active: 3.16 µM.

Source of the values: PubChem BioAssay AID1471 (National Center for Advancing Translational Sciences (NCATS), 2008).
